Literature values in publication PMC7717712, “The effects of cardiac drugs on human erythrocyte carbonic anhydrase I and II isozymes” (Journal of Enzyme Inhibition and Medicinal Chemistry, 2020).

Test system: aldehyde oxidase
Conditions: read-out: aldehyde oxidase inhibition (concentration printed without endpoint name); cited from earlier work

Which IC50 does the source give for `CCCNCC(O)COc1ccccc1C(=O)CCc1ccccc1` (stereo not shown) [Propafenone] here?
Its IC50 is 2500 nM.
